The target of assay [1] is T1, Mtb DnaA-HA, purified recombinant (Mycobacterium tuberculosis) (UniProt P9WNW3).
T1 sequence: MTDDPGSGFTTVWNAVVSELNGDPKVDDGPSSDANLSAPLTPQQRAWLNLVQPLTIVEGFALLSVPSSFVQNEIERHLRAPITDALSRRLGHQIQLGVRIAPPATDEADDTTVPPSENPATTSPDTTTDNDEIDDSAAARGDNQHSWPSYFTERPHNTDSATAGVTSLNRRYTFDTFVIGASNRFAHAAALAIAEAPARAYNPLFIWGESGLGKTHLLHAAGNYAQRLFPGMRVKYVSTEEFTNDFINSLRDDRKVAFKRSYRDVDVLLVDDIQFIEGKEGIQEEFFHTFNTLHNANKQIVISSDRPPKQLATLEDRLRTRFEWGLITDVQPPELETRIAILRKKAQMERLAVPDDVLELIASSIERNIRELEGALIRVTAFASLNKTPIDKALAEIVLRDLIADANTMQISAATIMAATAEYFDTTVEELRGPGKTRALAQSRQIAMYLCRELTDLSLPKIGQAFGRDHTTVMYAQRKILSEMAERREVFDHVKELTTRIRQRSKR
Nature of the assay: pull-down; both purified.

In assay [2] the target is Mtb DnaB-FLAG, purified recombinant (Mycobacterium tuberculosis). Kind of assay: pull-down; both purified.

No constants are given. Whether binding was seen depends on the method and setting. Binding can be weak; no strength is given. Tags and fused reporters may be left off the sequences shown.

The record followed here is article PMC5720831.

For the molecule “Mtb DnaB-FLAG, purified recombinant (Mycobacterium tuberculosis) (enzyme)”, the binding entry in assay [1] is “binds”.

B1: Mtb DnaA-HA, purified recombinant (protein, UniProt P9WNW3 1-507)
chain: MTDDPGSGFTTVWNAVVSELNGDPKVDDGPSSDANLSAPLTPQQRAWLNLVQPLTIVEGFALLSVPSSFVQNEIERHLRAPITDALSRRLGHQIQLGVRIAPPATDEADDTTVPPSENPATTSPDTTTDNDEIDDSAAARGDNQHSWPSYFTERPHNTDSATAGVTSLNRRYTFDTFVIGASNRFAHAAALAIAEAPARAYNPLFIWGESGLGKTHLLHAAGNYAQRLFPGMRVKYVSTEEFTNDFINSLRDDRKVAFKRSYRDVDVLLVDDIQFIEGKEGIQEEFFHTFNTLHNANKQIVISSDRPPKQLATLEDRLRTRFEWGLITDVQPPELETRIAILRKKAQMERLAVPDDVLELIASSIERNIRELEGALIRVTAFASLNKTPIDKALAEIVLRDLIADANTMQISAATIMAATAEYFDTTVEELRGPGKTRALAQSRQIAMYLCRELTDLSLPKIGQAFGRDHTTVMYAQRKILSEMAERREVFDHVKELTTRIRQRSKR
B1: the binding entry in assay [2] is “binds”.
